Experimental data from US20260242455A1.

Protein sequences, listed by entry. Tags and fused reporters are not part of them. Lines headed by an entry give the natural chain unless they say otherwise; changes in a name come on top.
UniProt O14793: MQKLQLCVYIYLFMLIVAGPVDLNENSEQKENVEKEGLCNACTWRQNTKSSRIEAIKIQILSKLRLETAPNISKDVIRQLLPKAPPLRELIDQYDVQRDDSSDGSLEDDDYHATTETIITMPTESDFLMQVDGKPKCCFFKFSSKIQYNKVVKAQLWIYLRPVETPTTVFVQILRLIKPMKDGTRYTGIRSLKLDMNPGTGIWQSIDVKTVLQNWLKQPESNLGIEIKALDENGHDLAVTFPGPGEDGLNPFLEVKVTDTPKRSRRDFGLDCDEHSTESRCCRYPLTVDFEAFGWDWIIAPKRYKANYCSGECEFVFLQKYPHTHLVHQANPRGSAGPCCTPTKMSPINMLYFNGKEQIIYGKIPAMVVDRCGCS

Biological target: latent myostatin (latent GDF8), species not stated in the experiment (UniProt O14793)
Assay: Octet, compared with parental Ab1

B1: Ab3 (affinity optimized, parental frameworks), IgG4 (S228P) (antibody, V domains shown)
VH: QIQLVQSGGGVVQPGRSLRLSCAASGFAFSSYGMHWVRQAPGKGLEWVAVISYDGSIKYYADSVKGRFTISRDNSKNTLYLQMNSLRAEDTAVYYCARDLLVRFLEWSHKYGMDVWGQGTTVTVSS
VL: QPVLTQPPSASGTPGQRVTISCSGSTSNIGSNTVHWYQQLPGTAPKLLIYSDDQRPSGVPDRFSGSKSGTSASLVISGLQSDDEADYYCAAWDESLNGVFGGGTKLTVL
binding: binds

B2: Ab5 (affinity optimized, parental frameworks), IgG4 (S228P) (antibody, V domains shown)
VH: B1 VH with S56N, I57N
VL: B1 VL with T26S, S31G
binding: binds

Residue numbers refer to the chain shown, from its start. Names and notes keep the numbering of the source. Results are given in words; binding and its absence hold for the method and conditions named. A result given as binding can be weak or reduced; the word gives no strength.
